These are yes or no findings as the source states them, for the method shown. In cells and extracts the contact can be indirect. Some binding calls cover weakened binding; strength is not graded here. Where a sequence is shown, tags or fusion partners need not be part of it.

By UniProt entry, the sequences of proteins in these tests, tags left out.
UniProt Q8N2Y8: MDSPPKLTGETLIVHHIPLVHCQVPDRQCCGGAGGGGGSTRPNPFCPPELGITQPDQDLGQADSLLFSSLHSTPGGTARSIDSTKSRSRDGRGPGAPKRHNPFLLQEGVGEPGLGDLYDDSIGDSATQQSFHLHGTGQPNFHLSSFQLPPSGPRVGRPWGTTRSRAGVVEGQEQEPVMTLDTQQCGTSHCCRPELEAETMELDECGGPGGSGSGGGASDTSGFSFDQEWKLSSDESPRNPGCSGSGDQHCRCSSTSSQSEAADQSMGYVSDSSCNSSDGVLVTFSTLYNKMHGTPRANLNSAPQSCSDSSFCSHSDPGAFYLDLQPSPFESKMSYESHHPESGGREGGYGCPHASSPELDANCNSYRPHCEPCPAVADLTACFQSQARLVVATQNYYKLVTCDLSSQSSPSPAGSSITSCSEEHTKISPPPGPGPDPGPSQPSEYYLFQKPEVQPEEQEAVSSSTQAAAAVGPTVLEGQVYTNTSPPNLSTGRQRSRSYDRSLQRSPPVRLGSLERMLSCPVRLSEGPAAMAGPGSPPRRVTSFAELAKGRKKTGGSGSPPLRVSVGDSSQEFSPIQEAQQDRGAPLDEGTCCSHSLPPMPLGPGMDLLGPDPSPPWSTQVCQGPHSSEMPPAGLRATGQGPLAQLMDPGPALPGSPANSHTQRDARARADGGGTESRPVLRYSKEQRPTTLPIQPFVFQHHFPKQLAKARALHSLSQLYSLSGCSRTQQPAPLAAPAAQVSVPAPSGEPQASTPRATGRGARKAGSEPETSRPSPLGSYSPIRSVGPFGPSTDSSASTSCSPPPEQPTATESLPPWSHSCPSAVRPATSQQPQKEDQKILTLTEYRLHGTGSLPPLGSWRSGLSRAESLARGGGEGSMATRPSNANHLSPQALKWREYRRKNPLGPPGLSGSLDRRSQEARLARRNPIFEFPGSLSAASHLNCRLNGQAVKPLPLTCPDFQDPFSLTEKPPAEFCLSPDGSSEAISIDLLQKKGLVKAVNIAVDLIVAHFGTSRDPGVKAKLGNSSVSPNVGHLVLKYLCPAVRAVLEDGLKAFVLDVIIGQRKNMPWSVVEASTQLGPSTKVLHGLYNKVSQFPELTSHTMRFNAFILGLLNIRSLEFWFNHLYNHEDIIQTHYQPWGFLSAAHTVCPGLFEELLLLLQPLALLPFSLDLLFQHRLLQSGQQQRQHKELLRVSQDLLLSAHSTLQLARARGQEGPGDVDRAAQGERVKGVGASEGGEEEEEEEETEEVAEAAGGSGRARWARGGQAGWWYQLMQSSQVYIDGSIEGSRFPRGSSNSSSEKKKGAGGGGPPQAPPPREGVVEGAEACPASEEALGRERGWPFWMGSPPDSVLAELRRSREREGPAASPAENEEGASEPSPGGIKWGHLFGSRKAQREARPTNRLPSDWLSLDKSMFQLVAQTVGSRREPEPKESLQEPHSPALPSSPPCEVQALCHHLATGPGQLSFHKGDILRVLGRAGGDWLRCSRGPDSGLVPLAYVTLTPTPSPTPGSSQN

This assay concerns the target T1, GST-AP4B1 appendage (human) (UniProt Q9Y6B7).
T1 sequence: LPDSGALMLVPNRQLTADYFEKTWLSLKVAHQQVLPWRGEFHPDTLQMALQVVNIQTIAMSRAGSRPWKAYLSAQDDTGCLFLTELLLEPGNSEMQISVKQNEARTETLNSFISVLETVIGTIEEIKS
Briefly: pull-down; 50 µg GST fusion on glutathione sepharose 4B, cytosol of HeLa cells stably expressing GFP-RUSC2 or EGFP, 20 mM HEPES pH 7.5, 150 mM NaCl, 2 mM DTT, 1 h at 4 °C, washes with 0.5% NP-40, Western blot; only the target purified.

For GFP-RUSC2 (from UniProt Q8N2Y8 1-1516), the binding result was “binds”.
